{
  "sequences": {"note": "Amino acid sequences for entries named in this document (tags omitted). A change or cut given only in a name is not applied to a line headed by its entry.", "UniProt Q13131": "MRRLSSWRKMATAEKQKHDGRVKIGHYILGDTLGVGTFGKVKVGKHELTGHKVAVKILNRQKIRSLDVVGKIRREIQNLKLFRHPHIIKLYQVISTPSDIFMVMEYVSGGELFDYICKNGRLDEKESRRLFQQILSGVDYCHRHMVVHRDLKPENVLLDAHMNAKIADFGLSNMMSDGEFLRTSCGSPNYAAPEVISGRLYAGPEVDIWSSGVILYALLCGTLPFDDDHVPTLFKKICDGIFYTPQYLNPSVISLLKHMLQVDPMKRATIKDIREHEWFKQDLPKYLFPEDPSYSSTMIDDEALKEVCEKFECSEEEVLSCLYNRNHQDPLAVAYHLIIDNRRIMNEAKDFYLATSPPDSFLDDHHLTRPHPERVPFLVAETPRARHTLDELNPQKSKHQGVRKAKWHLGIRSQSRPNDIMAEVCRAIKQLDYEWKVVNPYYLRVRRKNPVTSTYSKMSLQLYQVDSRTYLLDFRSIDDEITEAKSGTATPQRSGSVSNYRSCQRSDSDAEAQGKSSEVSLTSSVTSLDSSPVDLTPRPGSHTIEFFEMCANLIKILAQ", "UniProt Q9Y478": "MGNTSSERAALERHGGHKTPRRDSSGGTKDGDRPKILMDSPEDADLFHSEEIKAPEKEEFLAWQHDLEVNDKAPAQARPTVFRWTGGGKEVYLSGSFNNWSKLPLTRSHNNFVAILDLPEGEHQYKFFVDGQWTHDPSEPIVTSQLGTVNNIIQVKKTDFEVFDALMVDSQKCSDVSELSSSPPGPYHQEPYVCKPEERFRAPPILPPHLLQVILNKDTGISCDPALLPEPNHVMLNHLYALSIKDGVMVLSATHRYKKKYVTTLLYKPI"},
  "source": "patent US8410284B2",
  "about": "“Cyclic benzimidazole derivatives useful as anti-diabetic agents” (Merck Sharp & Dohme Corp, priority 2008, dated 2013)",
  "biological_target": "recombinant human AMPK complex 1 (containing α1β1γ1) (Homo sapiens, UniProt Q13131+Q9Y478)",
  "assay": "In vitro AMPK activation assay (AMPKSAMSF)",
  "format": "biochemical",
  "details": "recombinant human AMPK complex 1 (α1β1γ1)",
  "procedure": "AMPKSAMSF (In Vitro AMPK Activation Assay)\nThe recombinant human AMPK complex 1 (containing α1β1γ1) was obtained from baculovirus expression system. Recombinant viruses were generated by cotransfection of AMPK/pBacPak9 clones with Baculogold baculovirus DNA (Pharmingen) in spodoptera frugiperda 21 cells according to the manufacturer's instructions. Each round of virus amplification was performed for 5 days in Grace's medium containing 10% serum. Virus that had been subjected to three rounds of amplification was used for all protein production procedures. To express the AMPK complex, sf21 cells were adapted to serum free medium (SF900 II, Invitrogen) by sequential dilution from serum containing stocks into SF900 II medium and maintained in shaker flasks at 90 rpm at 27° C. The recombinant AMPK enzyme complex was produced by triple infection, one recombinant virus for each of the subunits, in sf21 cells under serum free conditions. Cells were infected in log phase, 1×10^6 cells/ml, at a multiplicity of infection of ˜5. […]\nThe total in vitro AMPK activation assay volume is 50 μl in a 96-well plate. […] The counts per minute from the basal activity (the reaction without activator) was subtracted from each well and the data were expressed as % maximum AMP activation followed by EC50 calculation.",
  "note": "Some results were stated once for a whole list of compounds, not compound by compound.",
  "data": [
    {"smiles": "CCOP(C)(=O)c1cccc(Oc2nc3cc(-c4ccc(-c5ccccc5)cc4)c(Cl)cc3[nH]2)c1", "note": "(stereo not shown) [Example 17, [3-(5 Biphenyl-4-yl-6-chloro-1H-benzoimidazol-2-yloxy)-phenyl]-methyl-phosphinic acid ethyl ester]", "values": [
      {"measurement": "EC50", "value": "< 10", "unit": "µM"}
    ]}
  ]
}
